Assay results: article PMC10802587 (bioRxiv, 2024)

System: Dd2-B2 parasites
Assay: Minimum inoculum of resistance
Type: cell-based, P. falciparum
Conditions: 5×EC50, 3.3 × 10^8 parasites per flask, three flasks

## CCCCCCCCCCCCCCCP(=O)(OCC)Oc1cc(F)cc(F)c1 (stereo not shown) [Compound 22]
  MIR value (minimum inoculum of resistance): 1× 10^9
